Assay results as given in paper PMC11961749.
Results are given in words; binding and its absence hold for the method and conditions named. In cells and extracts the contact can be indirect. A result given as binding can be weak or reduced; the word gives no strength.

By UniProt entry, the sequences of proteins in these tests, tags left out. Where a name states a change or a piece, a line headed by the entry shows the natural chain unless it says otherwise.
UniProt Q9NRC8: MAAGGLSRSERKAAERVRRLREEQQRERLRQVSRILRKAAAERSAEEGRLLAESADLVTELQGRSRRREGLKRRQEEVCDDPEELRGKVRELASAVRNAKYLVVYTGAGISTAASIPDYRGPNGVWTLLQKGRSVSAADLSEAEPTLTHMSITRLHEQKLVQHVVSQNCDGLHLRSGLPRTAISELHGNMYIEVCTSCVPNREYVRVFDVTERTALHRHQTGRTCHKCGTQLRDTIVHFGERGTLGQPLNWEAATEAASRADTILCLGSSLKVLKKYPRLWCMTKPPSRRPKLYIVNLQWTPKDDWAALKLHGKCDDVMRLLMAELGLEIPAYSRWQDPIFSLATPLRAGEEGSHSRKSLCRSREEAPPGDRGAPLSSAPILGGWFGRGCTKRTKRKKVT

Biological target: FLAG-tagged SIRT7 H187Y (enzymatic inactive SIRT7) (UniProt Q9NRC8)
Assay: co-IP; Huh7 cells transfected with FLAG-tagged SIRT7, FLAG-tagged SIRT7 HY or FLAG-tagged NRF2; endogenous partner detected by Western blot

binding: binds
B1: NRF2, nuclear factor-E2-related factor 2 (endogenous, Huh7) (protein, UniProt Q16236 1-605)
chain: MMDLELPPPGLPSQQDMDLIDILWRQDIDLGVSREVFDFSQRRKEYELEKQKKLEKERQEQLQKEQEKAFFAQLQLDEETGEFLPIQPAQHIQSETSGSANYSQVAHIPKSDALYFDDCMQLLAQTFPFVDDNEVSSATFQSLVPDIPGHIESPVFIATNQAQSPETSVAQVAPVDLDGMQQDIEQVWEELLSIPELQCLNIENDKLVETTMVPSPEAKLTEVDNYHFYSSIPSMEKEVGNCSPHFLNAFEDSFSSILSTEDPNQLTVNSLNSDATVNTDFGDEFYSAFIAEPSISNSMPSPATLSHSLSELLNGPIDVSDLSLCKAFNQNHPESTAEFNDSDSGISLNTSPSVASPEHSVESSSYGDTLLGLSDSEVEELDSAPGSVKQNGPKTPVHSSGDMVQPLSPSQGQSTHVHDAQCENTPEKELPVSPGHRKTPFTKDKHSSRLEAHLTRDELRAKALHIPFPVEKIINLPVVDFNEMMSKEQFNEAQLALIRDIRRRGKNKVAAQNCRKRKLENIVELEQDLDHLKDEKEKLLKEKGENDKSLHLLKKQLSTLYLEVFSMLRDEDGKPYSPSEYSLQQTRDGNVFLVPKSKKPDVKKN
